Measured values reported in paper PMC5587550.
No constants are given. Whether binding was seen depends on the method and setting. For part of these data: Binding seen in cells or lysates may run through a third protein. Some results given as binding are weak or reduced against the parent protein; the word gives no strength.

Amino acid sequences for entries named in this document (tags omitted).
UniProt Q15596: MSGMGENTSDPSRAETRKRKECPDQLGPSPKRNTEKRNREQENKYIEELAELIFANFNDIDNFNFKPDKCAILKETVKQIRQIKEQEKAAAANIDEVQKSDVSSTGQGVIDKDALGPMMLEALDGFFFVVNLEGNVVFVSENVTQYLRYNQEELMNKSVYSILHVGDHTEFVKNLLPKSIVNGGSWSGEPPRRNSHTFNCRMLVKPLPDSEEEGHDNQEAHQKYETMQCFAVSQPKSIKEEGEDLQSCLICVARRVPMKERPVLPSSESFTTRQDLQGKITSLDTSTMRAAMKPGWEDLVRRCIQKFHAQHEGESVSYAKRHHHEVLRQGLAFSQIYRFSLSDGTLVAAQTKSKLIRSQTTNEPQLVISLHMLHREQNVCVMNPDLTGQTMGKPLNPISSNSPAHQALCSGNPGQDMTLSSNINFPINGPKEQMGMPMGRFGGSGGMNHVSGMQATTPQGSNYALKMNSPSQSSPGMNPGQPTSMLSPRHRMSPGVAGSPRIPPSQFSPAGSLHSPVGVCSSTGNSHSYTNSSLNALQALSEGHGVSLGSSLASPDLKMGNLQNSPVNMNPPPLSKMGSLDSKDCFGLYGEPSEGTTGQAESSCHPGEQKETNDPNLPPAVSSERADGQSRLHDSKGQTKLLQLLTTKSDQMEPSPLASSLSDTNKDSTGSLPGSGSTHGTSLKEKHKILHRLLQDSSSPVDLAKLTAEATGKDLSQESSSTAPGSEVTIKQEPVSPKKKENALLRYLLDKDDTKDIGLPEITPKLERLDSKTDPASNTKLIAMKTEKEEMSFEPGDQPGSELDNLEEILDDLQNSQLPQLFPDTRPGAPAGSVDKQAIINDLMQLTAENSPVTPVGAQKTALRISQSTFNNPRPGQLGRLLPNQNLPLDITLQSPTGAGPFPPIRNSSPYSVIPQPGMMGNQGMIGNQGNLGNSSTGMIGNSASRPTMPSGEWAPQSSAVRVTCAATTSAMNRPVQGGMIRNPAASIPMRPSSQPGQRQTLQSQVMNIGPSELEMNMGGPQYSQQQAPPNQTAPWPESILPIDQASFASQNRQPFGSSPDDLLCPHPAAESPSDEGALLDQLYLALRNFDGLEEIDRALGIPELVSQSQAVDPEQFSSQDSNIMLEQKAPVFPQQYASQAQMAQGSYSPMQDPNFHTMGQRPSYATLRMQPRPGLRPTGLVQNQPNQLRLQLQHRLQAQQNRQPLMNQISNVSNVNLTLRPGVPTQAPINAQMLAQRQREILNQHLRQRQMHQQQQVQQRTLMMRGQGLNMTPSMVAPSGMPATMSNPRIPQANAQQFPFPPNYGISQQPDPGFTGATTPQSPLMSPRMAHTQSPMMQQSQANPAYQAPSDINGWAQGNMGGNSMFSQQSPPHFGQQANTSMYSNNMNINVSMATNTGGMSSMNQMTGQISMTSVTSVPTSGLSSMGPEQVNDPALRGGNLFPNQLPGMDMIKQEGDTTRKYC
UniProt Q9Y5X4: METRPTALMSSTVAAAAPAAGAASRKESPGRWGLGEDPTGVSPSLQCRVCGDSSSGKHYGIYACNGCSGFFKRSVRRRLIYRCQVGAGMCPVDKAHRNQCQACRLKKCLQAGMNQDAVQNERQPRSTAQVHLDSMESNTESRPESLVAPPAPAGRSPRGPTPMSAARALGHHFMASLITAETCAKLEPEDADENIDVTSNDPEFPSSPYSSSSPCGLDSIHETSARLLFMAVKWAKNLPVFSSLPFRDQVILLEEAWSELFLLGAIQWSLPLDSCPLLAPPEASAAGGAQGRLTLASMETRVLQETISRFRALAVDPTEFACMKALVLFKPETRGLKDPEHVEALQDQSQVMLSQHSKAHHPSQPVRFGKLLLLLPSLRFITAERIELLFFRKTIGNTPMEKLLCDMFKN
UniProt P08047: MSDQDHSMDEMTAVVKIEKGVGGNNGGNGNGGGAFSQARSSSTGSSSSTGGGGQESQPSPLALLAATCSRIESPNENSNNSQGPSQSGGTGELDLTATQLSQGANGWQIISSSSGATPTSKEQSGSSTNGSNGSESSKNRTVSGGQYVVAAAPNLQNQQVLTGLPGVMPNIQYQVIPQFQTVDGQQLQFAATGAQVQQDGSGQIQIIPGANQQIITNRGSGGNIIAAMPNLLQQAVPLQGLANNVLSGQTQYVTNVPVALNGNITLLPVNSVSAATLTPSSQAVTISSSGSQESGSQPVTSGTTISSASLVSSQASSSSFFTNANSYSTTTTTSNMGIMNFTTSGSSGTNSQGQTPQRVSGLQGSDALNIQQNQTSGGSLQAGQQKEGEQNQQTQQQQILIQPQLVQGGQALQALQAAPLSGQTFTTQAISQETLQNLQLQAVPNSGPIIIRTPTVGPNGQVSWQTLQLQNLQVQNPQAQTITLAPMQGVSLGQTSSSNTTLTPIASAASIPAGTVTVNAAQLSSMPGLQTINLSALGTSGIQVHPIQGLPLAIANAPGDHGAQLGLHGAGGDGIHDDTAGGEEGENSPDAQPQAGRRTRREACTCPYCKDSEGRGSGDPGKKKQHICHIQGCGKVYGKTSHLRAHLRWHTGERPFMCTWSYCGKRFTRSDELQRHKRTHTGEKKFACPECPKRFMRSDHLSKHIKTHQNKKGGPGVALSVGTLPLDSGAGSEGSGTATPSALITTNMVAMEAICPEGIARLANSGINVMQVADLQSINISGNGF

How the values were obtained:
[1] = target: glucocorticoid receptor-interacting protein1 (GRIP1) (human (endogenous in HepG2 and MCF-7)) (UniProt Q15596); experiment: co-IP; MCF-7 cell lysate (~2 mg total protein), 3 ug antibody or control IgG at 4 °C overnight, protein G magnetic beads (Universal Magnetic Co-IP Kit), immunoblot
[2] = target: glucocorticoid receptor-interacting protein1 (GRIP1) (human (endogenous in HepG2 and MCF-7)) (UniProt Q15596); experiment: co-IP; HepG2 cell lysate (~2 mg total protein), 3 ug antibody or control IgG at 4 °C overnight, protein G magnetic beads (Universal Magnetic Co-IP Kit), immunoblot; done in both directions
[3] = target: Nuclear receptor subfamily 2 group E, Member 3 (NR2E3) (human (endogenous in HepG2 and MCF-7)) (UniProt Q9Y5X4); experiment: Re-ChIP-PCR; MCF-7 cell lysate; sequential chromatin immunoprecipitation, PCR of the AHR promoter
[4] = target: Nuclear receptor subfamily 2 group E, Member 3 (NR2E3) (human (endogenous in HepG2 and MCF-7)) (UniProt Q9Y5X4); experiment: co-IP; MCF-7 cell lysate (~2 mg total protein), 3 ug antibody or control IgG at 4 °C overnight, protein G magnetic beads (Universal Magnetic Co-IP Kit), immunoblot
[5] = target: Nuclear receptor subfamily 2 group E, Member 3 (NR2E3) (human (endogenous in HepG2 and MCF-7)) (UniProt Q9Y5X4); experiment: Re-ChIP-PCR; HepG2 cells; formaldehyde-fixed chromatin first immunoprecipitated with anti-NR2E3, then with anti-GRIP1 or anti-Sp1; PCR of the proximal AHR promoter (-283 to -90)
[6] = target: Nuclear receptor subfamily 2 group E, Member 3 (NR2E3) (human (endogenous in HepG2 and MCF-7)) (UniProt Q9Y5X4); experiment: co-IP; HepG2 cell lysate (~2 mg total protein), 3 ug antibody or control IgG at 4 °C overnight, protein G magnetic beads (Universal Magnetic Co-IP Kit), immunoblot; done in both directions
[7] = target: Nuclear receptor subfamily 2 group E, Member 3 (NR2E3) (human (endogenous in HepG2 and MCF-7)) (UniProt Q9Y5X4); experiment: co-IP; NR2E3 and Sp1; cell line and direction not told in the text (Supplementary Fig. 2a); method taken from the context

| binding [1] | binding [2] | binding [3] | binding [4] | binding [5] | binding [6] | binding [7] | Substance |
| --- | --- | --- | --- | --- | --- | --- | --- |
| binds | binds | – | – | – | – | – | Nuclear receptor subfamily 2 group E, Member 3 (NR2E3) (from UniProt Q9Y5X4 1-410) |
| – | – | binds | binds | binds | binds | – | glucocorticoid receptor-interacting protein1 (GRIP1) (from UniProt Q15596 1-1464) |
| – | – | binds | – | binds | – | binds | specificity protein 1 (Sp1) (from UniProt P08047 1-785) |
